This assay is described as follows: qHTS Assay to Find Inhibitors of Chronic Active B-Cell Receptor Signaling. The settings on record: ABC-DLBCL IkBa-CBG/CBR reporter, luminescence ratio (green luciferase fused to IkBa over red control in TMD8 lymphoma cells), 4 h. In a few lines: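 Cell line TMD8 (human ABC DLBCL), stably expressing tet-inducible CBG68-IkBa fusion and CBR; IMDM/0.5% FBS; cpd up to 46 uM; dox induction, 4 h, 37C/5% CO2; dual luminescence; green/red ratio; MG132 control.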

[1] abbreviates: measured here: CBR red luminescence, cell number.
The mark [2] stands for this setting: measured here: IkBa-CBG green luminescence.

The list shows a part of the results. These are further read-outs of the screen, such as a control signal, another cell line or another target. No call is given for them. The list favours compounds with an active or inconclusive main result. Words in brackets tell the shape of the fitted curve; partial curves, single points and poor fits give uncertain potencies.

What is called AC50 is the midpoint of the concentration-response curve, whichever way the signal moves. For `Cc1ccccc1OCCC(=O)Nc1ccc(S(=O)(=O)N(C)C2CCN(C)CC2)cc1`, the AC50 under setting [1] was 18.4 µM [falling, partial curve, poor fit]. As for `CCCCC(=O)Nc1c(-c2ccc(OC)c(OC)c2)c(=O)c2ccccc2n1C`, the AC50 under setting [1] was 22.4 µM [rising, partial curve, poor fit]. Consider `CCN1CC(CN(C)Cc2nc(-c3ccco3)oc2C)CC1=O` (stereo unspecified), for which the AC50 under setting [1] is 0.251 µM [rising, full curve, poor fit]. For the compound `O=C1N[C@H](Cc2ccccc2)COC(=O)[C@H](Cc2ccc(F)cc2)C/C=C\C[C@@H]1CC(=O)N(CCO)Cc1ccccc1`, under setting [1], the AC50 was 0.731 µM [falling, full curve, poor fit]. Consider `CCn1c(=O)cc(SCC(=O)N2CCN(c3ccccc3F)CC2)c2ccccc21`, for which, under setting [1], the AC50 was 0.447 µM [rising, full curve, poor fit].

Turning to `COc1cccc(NC(=O)CN(C)C(=O)c2cc(C3CC3)nn2-c2ccccc2)c1`, the AC50 under setting [1] was 25.9 µM [falling, single point]. With `CC1(C)CNC(=O)c2sc(NC(=O)c3ccccc3)nc2C1`, the AC50 under setting [1] is 1.58 µM [falling, full curve]. In the case of `NN/C(=C\[N+](=O)[O-])Nc1ccccc1`, the concentration at half-maximal activity (AC50) under setting [1] was 8.91 µM [falling, partial curve]. For the compound `COc1ccc(F)cc1S(=O)(=O)N1CCN(c2ccccn2)CC1`, the AC50 under setting [1] is 11.2 µM [rising, partial curve, poor fit]. On to `N#CCCn1ccc(NC(=O)c2ccc(Cl)cc2)n1`, for which, under setting [1], the half-maximal activity concentration (AC50) was 3.66 µM [rising, partial curve, poor fit]. Consider `COc1ccc(-c2nncnn2)cc1`, for which the concentration at half-maximal activity (AC50) under setting [1] is 29.1 µM [falling, partial curve, poor fit].

Consider `CCOC(=O)c1nc(-c2ccc3c(c2)OCO3)[nH]c1C`, for which the AC50 under setting [1] was 29.1 µM [falling, single point]. As to `Fc1ccc(/C=N/n2c(-c3cccs3)n[nH]c2=S)cc1`, the AC50 under setting [1] was 1.84 µM [rising, partial curve, poor fit]. The same measure, in the same setting: in the case of `O=[N+]([O-])c1ccc(CSc2ccccn2)cc1` it was 35.5 µM [rising, single point]. In the case of `COc1cc(S(C)=O)ccc1-c1nc2ncccc2[nH]1` (stereo unspecified), the AC50 under setting [1] is 14.6 µM [falling, single point].

Take `CN(c1ccc(OCC(=O)OCc2nnc(-c3ccccc3)o2)cc1)S(=O)(=O)c1ccc(Cl)cc1`: the concentration at half-maximal activity (AC50) under setting [1] is 6.51 µM [rising, single point]. With `O=C(CSc1nc2ccccc2s1)N1c2ccccc2Sc2ccccc21`, the concentration at half-maximal activity (AC50) under setting [1] was 0.1 µM [rising, full curve, poor fit].

Turning to `COc1ccc(C2C(=O)N(C3CCCCC3)CC(=O)N2C2CCCCC2)cc1` (stereo unspecified), the AC50 under setting [1] was 2.91 µM [rising, single point]. Same read-out and setting: in the case of `O=C(Nc1cccc(NC(=O)c2sc3ccccc3c2Cl)c1)c1ccco1` it was 2.59 µM [falling, partial curve, poor fit]. In the case of `O=S(=O)(Nc1ccc(-c2nnc(SCc3ccc(Cl)cc3)o2)cc1)c1ccccc1`, the AC50 under setting [1] is 16.4 µM [falling, single point]. With `O=S(=O)(Nc1ccc(Cl)c(Cl)c1)N1CCOCC1`, the AC50 under setting [1] is 31.6 µM [rising, single point]. On the same count and under the same terms, the same measure for `CCOc1ccc(NC(=O)CN(C)C(=O)c2ccccc2OCc2cccc(C)c2)cc1OCC`: 18.4 µM [falling, single point]; for `Cc1ccc2cc(C(c3nnnn3C3CCCC3)N(Cc3ccco3)Cc3cccs3)c(=O)[nH]c2c1` (stereo unspecified): 29.1 µM [rising, single point]. The same measure, in the same setting: in the case of `COc1cc(NC(=O)C/C(C)=N/NC(=O)c2ccccn2)c(OC)cc1Cl` it was 12.6 µM [falling, partial curve, poor fit]; in that of `Cc1cccc(NC(=O)C2CCN(S(=O)(=O)c3ccc4ccccc4c3)CC2)n1`, 20.6 µM [falling, single point]; in that of `O=C(N/N=C\c1ccc(OC(=O)c2cccs2)cc1)c1ccc(Cl)cc1`, 23.1 µM [falling, single point]. Turning to `Cc1ccnc(NC(=O)Nc2ccc(F)cc2)c1`, the AC50 under setting [1] is 12.6 µM [falling, single point]. Same read-out and setting: in the case of `CC1CCN(c2nc(-c3ccc(Br)cc3)nc3ccccc23)CC1` it was 0.0891 µM [rising, full curve, poor fit]; in that of `Nc1[nH]n2c(=O)c3c(nc2c1N=Nc1ccccc1)CCCC3`, 0.891 µM [falling, full curve].

As to `COC(=O)c1sccc1NC(=O)NC1CCCCC1`, the concentration at half-maximal activity (AC50) under setting [1] was 4.47 µM [falling, partial curve]. Still for that read-out and setting: in the case of `Cc1ccc2cc(CN(Cc3ccco3)C(=O)c3cccs3)c(=O)[nH]c2c1` it was 0.651 µM [falling, partial curve, poor fit]. Consider `CCOc1ccc(-c2nc(C#N)c(N3CCOCC3)o2)cc1`, for which the AC50 under setting [1] was 11.2 µM [rising, single point]. As for `Cn1cccc1/C=C1\SC(=Nc2ccc(O)cc2)NC1=O`, the half-maximal activity concentration (AC50) is 5.01 µM [falling, partial curve] under setting [1] and 2.24 µM [falling, full curve] under setting [2]. As for `COc1cc(/C=C(\C#N)C(=O)NCc2ccccc2)ccc1OCc1ccc(C(=O)O)cc1`, the AC50 under setting [1] was 10 µM [falling, partial curve, poor fit]. For `COc1cc(CNCCO)cc(Br)c1OCc1ccccc1`, the half-maximal activity concentration (AC50) under setting [1] is 14.1 µM [falling, single point].

Turning to `Cc1c(/C=N\NC(=O)c2cccc(F)c2)cnn1C`, under setting [1], the half-maximal activity concentration (AC50) is 18.4 µM [falling, single point]. For the compound `CCOc1ccc(CCNC(=O)CCc2nnc3ccc(N4CCOCC4)nn23)cc1OCC`, under setting [1], the half-maximal activity concentration (AC50) was 2.82 µM [rising, single point]. On to `COc1ccc(CNC(=O)c2cc(-c3ccc(OC)c(OC)c3)on2)cc1`, for which the AC50 under setting [1] is 0.231 µM [falling, full curve]. For the compound `O=c1[nH]c2ccccc2cc1CN(CC1CCCO1)S(=O)(=O)c1ccccc1` (stereo unspecified), under setting [1], the half-maximal activity concentration (AC50) was 3.16 µM [falling, full curve]. In the case of `O=C(Nc1ccc(-c2nc3ccccc3o2)cc1)C1CCCO1` (stereo unspecified), the AC50 under setting [1] was 5.8 µM [falling, partial curve, poor fit].

Take `COc1ccccc1NC(=O)c1ccc(-c2ccccc2[N+](=O)[O-])o1`: under setting [1], the AC50 is 12.6 µM [falling, partial curve, poor fit]. Regarding `Cc1ccc(C(=O)N2CCC(C(=O)NCc3cccnc3)CC2)cc1`, the AC50 under setting [1] is 18.4 µM [rising, single point]. Take `Cc1ccc(Nc2nc(Cl)nc(NC3CCCCC3)n2)cc1`: the AC50 under setting [1] was 1.41 µM [falling, full curve, poor fit]. In the case of `CCOC(=O)c1[nH]c2ccc(C)cc2c1N`, the half-maximal activity concentration (AC50) under setting [1] is 23.1 µM [falling, single point].

On to `CCc1ccc(NC(=O)CSc2ccccn2)cc1`, for which the AC50 under setting [1] was 1.26 µM [rising, partial curve, poor fit]. As for `COc1ccc(-c2nnn(CC(=O)c3c[nH]c4ccccc34)n2)cc1OC`, under setting [1], the concentration at half-maximal activity (AC50) is 6.51 µM [rising, single point]. On to `CCCC(=O)NC(NC1CCS(=O)(=O)C1)C(Cl)(Cl)Cl` (stereo unspecified), for which the AC50 under setting [1] is 10 µM [rising, partial curve, poor fit].

Regarding `Cc1cnc(NC(=O)/C=C/c2ccc(Br)o2)s1`, the concentration at half-maximal activity (AC50) under setting [1] was 0.794 µM [rising, partial curve, poor fit]. Consider `COc1ccc(-c2csc3ncnc(Cl)c23)cc1`, for which the AC50 under setting [1] was 3.16 µM [falling, partial curve, poor fit]. Regarding `COCCn1c(SCC(=O)N2CCCCCC2)nc2c(c1=O)SCC2`, under setting [1], the AC50 was 14.1 µM [falling, partial curve]. Regarding `COc1cccc(/C=N/Nc2ncc(C(F)(F)F)cc2Cl)c1O`, the AC50 under setting [2] is 0.231 µM [falling, partial curve, poor fit]. In the case of `O=S(=O)(c1cccc2nsnc12)N1CCCC1`, under setting [2], the half-maximal activity concentration (AC50) was 17.8 µM [falling, partial curve, poor fit]. For the compound `Cc1ccccc1Nc1nnc(SCc2cc(=O)n3ccsc3n2)s1`, under setting [1], the concentration at half-maximal activity (AC50) was 0.891 µM [falling, full curve, poor fit]. In the case of `Cc1ccc(/C=N/NC(=O)C2COc3ccccc3O2)s1` (stereo unspecified), the half-maximal activity concentration (AC50) runs as follows: under setting [1], 20.6 µM [rising, partial curve]; under setting [2], 20.6 µM [falling, partial curve]. `Cc1ccc(S(=O)(=O)/N=C(\N)Nc2nc(C)c3cc(C)ccc3n2)cc1`: the AC50 under setting [1] is 11.2 µM [falling, partial curve, poor fit]. For the compound `O=C(CCC(=O)N1CCOc2ccccc21)NCCCN1CCN(Cc2ccccc2)CC1`, under setting [1], the AC50 was 35.5 µM [falling, single point]. For the compound `COc1ccc(Nc2c3c(c(C#N)c4nc5ccccc5n24)CCC3)cc1`, the AC50 under setting [1] is 3.55 µM [falling, partial curve, poor fit]. `Cc1cc([N+](=O)[O-])nn1CCCC(=O)Nc1cc(Oc2ccc(F)cc2)cc([N+](=O)[O-])c1`: the AC50 under setting [1] was 11.6 µM [rising, partial curve, poor fit]. On the same count and under the same terms, the same measure for `CSc1ccc(C=NNc2ccc(S(=O)(=O)Nc3ccccc3C(=O)O)cc2[N+](=O)[O-])cc1`: 18.4 µM [rising, single point]; for `COc1ccc(C(=O)Nc2cccc(OC(=O)c3ccco3)c2)cc1`: 11.2 µM [falling, partial curve, poor fit]; for `Cc1cc[n+]2c3c(cccc13)CCC2`: 0.206 µM [falling, partial curve, poor fit]. Take `O=C(O)/C(=C\c1ccc(-c2ccc(F)cc2)o1)c1ccccc1`: the AC50 under setting [1] was 35.5 µM [falling, single point]. Take `O=C(NC(=O)N1CCN(c2ccccc2F)CC1)c1ccccc1`: the AC50 under setting [1] was 1.41 µM [rising, full curve, poor fit]. The same measure, in the same setting: the same measure for `COc1ccccc1NC(=O)CSc1nnnn1-c1ccccc1F`: 12.6 µM [falling, single point].

Values taken from PubChem BioAssay AID493014 (National Center for Advancing Translational Sciences (NCATS), 2011).
